Drawing on article PMC4931343, this text covers binding for 5 molecules.

Sequences of proteins named here, by UniProt entry; tags and fusion partners are left off. A change or cut given only in a name is not applied to a line headed by its entry. A line that says so, or that is headed by a name, gives the form on record, which may keep a tag or linker. Residues count along the entry.
UniProt Q9CR42: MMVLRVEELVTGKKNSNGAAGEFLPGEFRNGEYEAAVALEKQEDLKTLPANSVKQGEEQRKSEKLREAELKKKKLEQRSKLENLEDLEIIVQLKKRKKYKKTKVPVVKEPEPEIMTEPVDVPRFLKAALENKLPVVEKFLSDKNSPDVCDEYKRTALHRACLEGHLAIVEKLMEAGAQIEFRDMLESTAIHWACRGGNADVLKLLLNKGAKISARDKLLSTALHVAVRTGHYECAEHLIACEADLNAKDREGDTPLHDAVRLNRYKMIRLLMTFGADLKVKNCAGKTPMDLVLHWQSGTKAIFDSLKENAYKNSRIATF
UniProt Q9GZV1: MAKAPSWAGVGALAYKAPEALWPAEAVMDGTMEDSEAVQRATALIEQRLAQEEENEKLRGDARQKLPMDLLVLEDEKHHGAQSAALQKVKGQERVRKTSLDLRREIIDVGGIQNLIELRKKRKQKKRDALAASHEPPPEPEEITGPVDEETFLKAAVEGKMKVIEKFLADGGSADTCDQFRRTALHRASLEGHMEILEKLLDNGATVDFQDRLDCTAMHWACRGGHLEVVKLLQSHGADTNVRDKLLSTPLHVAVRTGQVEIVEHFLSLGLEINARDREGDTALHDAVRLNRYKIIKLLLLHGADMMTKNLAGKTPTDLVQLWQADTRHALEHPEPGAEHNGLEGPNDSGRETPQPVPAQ
CARP2 coiled-coil region (amino acids 1-146) tagged on the C-terminus with YFP C-terminal fragment (YC): residues 1-146 of Q9GZV1
UniProt Q15327: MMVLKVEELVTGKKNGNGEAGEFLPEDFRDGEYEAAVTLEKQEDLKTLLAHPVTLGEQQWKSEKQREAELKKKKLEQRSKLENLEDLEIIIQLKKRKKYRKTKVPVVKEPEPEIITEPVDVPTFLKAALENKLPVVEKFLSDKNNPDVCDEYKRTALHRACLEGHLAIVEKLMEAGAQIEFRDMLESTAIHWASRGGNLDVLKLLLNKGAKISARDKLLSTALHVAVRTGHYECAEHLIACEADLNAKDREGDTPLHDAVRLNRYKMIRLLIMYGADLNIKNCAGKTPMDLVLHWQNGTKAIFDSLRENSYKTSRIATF
UniProt Q9WV06: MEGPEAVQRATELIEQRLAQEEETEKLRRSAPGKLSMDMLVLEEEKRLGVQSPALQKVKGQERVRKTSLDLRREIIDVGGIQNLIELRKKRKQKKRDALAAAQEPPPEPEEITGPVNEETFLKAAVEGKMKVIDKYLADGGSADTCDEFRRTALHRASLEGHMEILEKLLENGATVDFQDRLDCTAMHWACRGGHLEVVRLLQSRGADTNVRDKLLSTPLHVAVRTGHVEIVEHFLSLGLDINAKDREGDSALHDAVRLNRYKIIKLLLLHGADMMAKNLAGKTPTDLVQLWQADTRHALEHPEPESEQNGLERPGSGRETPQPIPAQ

Assay [1] concerns the target CARP1 (endogenous, mouse heart) (mouse (endogenous in heart)) (UniProt Q9CR42). Kind of assay: co-IP; CARP1 antibodies (1 μg), protein G magnetic beads, soluble heart extracts of adult MLP knockout mice, 4 °C; immunoblot. (In general: A western blot detects proteins with antibodies after separation by electrophoresis.)
The target is the same in assay [2]. Kind of assay: co-IP; CARP1 antibodies (1 μg), protein G magnetic beads, soluble heart extracts of adult WT mice, 4 °C; immunoblot.
The target of assay [3] is GST-CARP2 (human CARP2/Ankrd2) (human) (UniProt Q9GZV1). Kind of assay: pull-down; recombinant CARP1 or CARP2 (GST fusion) incubated with extracts of MLP knockout mouse hearts; glutathione-sepharose 4B; immunoblot; only the target purified.
The target in assay [4] is GST-CARP1 (human CARP1/Ankrd1) (human) (UniProt Q15327). The description is as above.
Assay [5] concerns the target T1, CARP3 coiled-coil region (amino acids 1-109) tagged on the C-terminus with YFP C-terminal fragment (YC) (human) (UniProt Q86SG2).
T1 sequence: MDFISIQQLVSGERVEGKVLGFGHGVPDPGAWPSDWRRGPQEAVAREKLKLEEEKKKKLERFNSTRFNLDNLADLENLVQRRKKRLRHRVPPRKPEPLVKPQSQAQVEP
In words: split reporter; split-YFP protein complementation in transfected cells; YN on PLCβ1 coiled coil, YC on CARP coiled coil; fluorescence microscopy.

Assay [6] concerns the target CARP2 coiled-coil region (amino acids 1-146) tagged on the C-terminus with YFP C-terminal fragment (YC) (human) (UniProt Q9GZV1). Described as above.
For assay [7], the target named is GST-CARP2 (human CARP2/Ankrd2) (human) (UniProt Q9GZV1). In words: pull-down; 2 μg GST-CARP1 or GST-CARP2 incubated at 4 °C with soluble extract (IP-buffer: 150 mM NaCl, Tris-HCl pH 8, 0.2% NP-40, 0.2% SDS) holding GFP-PLCβ1; glutathione-sepharose 4B; immunoblot; only the target purified.
For assay [8], the target named is GST-CARP1 (human CARP1/Ankrd1) (human) (UniProt Q15327). The assay is described as above.

No constants are given. Whether binding was seen depends on the method and setting. Binding seen in cells or lysates may run through a third protein. Some results given as binding are weak or reduced against the parent protein; the word gives no strength. For some of these results: Tags and fused reporters may be left off the sequences shown.

As for “CARP2 (endogenous, mouse heart) (from UniProt Q9WV06 1-328)”, in assay [1], the binding result is given as “binds”.

For “PKCα (endogenous, mouse heart) (from UniProt P20444 1-672) (enzyme)”, the binding entry is reported as “no binding (condition: extracts of WT hearts)” in assay [2], “binds” in assay [3], “binds” in assay [4] and “binds” in assay [1].

B1: YN-PLCβ1 coiled-coil region (amino acids 980-1140) (domain or fragment, UniProt Q9NQ66-1 980-1140)
chain: PSSPDHGSSTIEQDLAALDAEMTQKLIDLKDKQQQQLLNLRQEQYYSEKYQKREHIKLLIQKLTDVAEECQNNQLKKLKEICEKEKKELKKKMDKKRQEKITEAKSKDKSQMEEEKTEMIRSYIQEVVQYIKRLEEAQSKRQEKLVEKHKEIRQQILDEKP
With B1, the binding entry in assay [5] and in assay [6] was “binds” each time.

B2: GFP-PLCβ1 coiled-coil domains (human phospholipase C β1, amino acids 978-1138) (domain or fragment, UniProt Q9NQ66-1 978-1138)
chain: SEPSSPDHGSSTIEQDLAALDAEMTQKLIDLKDKQQQQLLNLRQEQYYSEKYQKREHIKLLIQKLTDVAEECQNNQLKKLKEICEKEKKELKKKMDKKRQEKITEAKSKDKSQMEEEKTEMIRSYIQEVVQYIKRLEEAQSKRQEKLVEKHKEIRQQILDE
For the molecule B2, the binding entry in assay [7] and in assay [8] was “binds” in each case.

B3: PLCβ1 (endogenous, mouse heart) (enzyme, UniProt Q9Z1B3 1-1216)
chain: MAGAQPGVHALQLKPVCVSDSLKKGTKFVKWDDDSTIVTPIILRTDPQGFFFYWTDQNKETELLDLSLVKDARCGKHAKAPKDPKLRELLDVGNIGHLEQRMITVVYGPDLVNISHLNLVAFQEEVAKEWTNEVFSLATNLLAQNMSRDAFLEKAYTKLKLQVTPEGRIPLKNIYRLFSADRKRVETALEACSLPSSRNDSIPQEDFTPDVYRVFLNNLCPRPEIDNIFSEFGAKSKPYLTVDQMMDFINLKQRDPRLNEILYPPLKQEQVQVLIEKYEPNSSLAKKGQMSVDGFMRYLSGEENGVVSPEKLDLNEDMSQPLSHYFINSSHNTYLTAGQLAGNSSVEMYRQVLLSGCRCVELDCWKGRTAEEEPVITHGFTMTTEISFKEVIEAIAECAFKTSPFPILLSFENHVDSPKQQAKMAEYCRLIFGDALLMEPLEKYPLESGVPLPSPMDLMYKILVKNKKKSHKSSEGSGKKKLSEQASNTYSDSSSVFEPSSPGAGEADTESDDDDDDDDCKKSSMDEGTAGSEAMATEEMSNLVNYIQPVKFESFEISKKRNKSFEMSSFVETKGLEQLTKSPVEFVEYNKMQLSRIYPKGTRVDSSNYMPQLFWNAGCQMVALNFQTVDLAMQINMGMYEYNGKSGYRLKPEFMRRPDKHFDPFTEGIVDGIVANTLSVKIISGQFLSDKKVGTYVEVDMFGLPVDTRRKAFKTKTSQGNAVNPVWEEEPIVFKKVVLPSLACLRIAAYEEGGKFIGHRILPVQAIRPGYHYICLRNERNQPLTLPAVFVYIEVKDYVPDTYADVIEALSNPIRYVNLMEQRAKQLAALTLEDEEEVKKEADPGETSSEAPSETRTTPAENGVNHTASLAPKPPSQAPHSQPAPGSVKAPAKTEDLIQSVLTEVEAQTIEELKQQKSFVKLQKKHYKEMKDLVKRHHKKTTELIKEHTTKYNEIQNDYLRRRAALEKSAKKDSKKKSEPSSPDHGSSAIEQDLAALDAEMTQKLIDLKDKQQQQLLNLRQEQYYSEKYQKREHIKLLIQKLTDVAEECQNNQLKKLKEICEKEKKELKKKMDKKRQEKITEAKSKDKSQMEEEKTEMIRSYIQEVVQYIKRLEEAQSKRQEKLVEKHNEIRQQILDEKPKLQTELEQEYQDKFKRLPLEILEFVQEAMKGKISEDSNHGSAPPSLASDAAKVNLKSPSSEEIERENPGREFDTPL
For the molecule B3, the binding result in assay [2] is listed as “no binding (condition: extracts of WT hearts)”; in assay [3], “binds”; in assay [4], “binds”; in assay [1], “binds”.
